68 sequences from PubChem BioAssay AID1508600 (Functional Genomics Laboratory (NCATS/FGL), 2020) can be followed below.

The campaign covered roughly 53,000 sequences. About 3,700 (7%) were called active.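 The calls were made as follows: active = gene knockdowns whose robust z-score for IL-1 alpha signal is at least 2 or at most -2, so actives lie on both sides; inactive = the rest.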 This is one part of the list.

The test in a line: Components of the Cytosolic LPS Sensing Pathway: Gene Identification via Genome-wide siRNA Screen.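 Also: robust z of the log signal after scaling to non-targeting control siRNA wells of the plate.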 As to conditions: RAW264.7 macrophages, IL-1a HTRF, actives lie on both sides, screened at 100 nM (by protocol), cells primed 5 h with Pam3CSK4 first. Put shortly: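 Three distinct siRNAs per gene were tested singly at 100 nM in RAW264.7 macrophages. Following Pam3CSK4 priming and 24 hour LipidA transfection, IL-1a secretion was read by HTRF.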
For orientation: In TR-FRET formats the signal depends on donor and acceptor labels being close together.
Take GCAUCGAAGAGUUCAGAAUTT against Gm5136: the z-score is inactive: -0.161. To GGUGGAGAAGGCAUGAAGATT against Amn belongs inactive: 0.329. As for GGGUUUAUAAUUGGGAUGUTT against Vbp1, the z-score is inactive: 0.478.

As for GCACUGCAUAUUCCGCACUTT against Nubp2, the z-score was inactive: 1.4.

For CCAGCUUGUUACUAAGUAATT against Mgat3, the z-score is inactive: -0.227. To GUACUUCACACCAGUUACATT against Olfr308 belongs inactive: 0.824; to CGAGGAAAAUUCCCGUCCCTT against Pno1, inactive: 0.474.

Regarding GCACUGUGAAUUUGUCAUUTT against Umps, the z-score is inactive: 1.22.

Turning to GGGUCAUCCAAAUGGUUUGTT against Grm6, the z-score is inactive: 0.323.

Regarding CCGUUCACAAGAAUUACACTT against Grb2, the z-score is inactive: -0.665. Consider CCAAUUCACUUAGGAGCUGTT against Psma4, for which the z-score is active: -2.1. As to GGUGCUCUCAGGAAAGUUGTT against Olfr1157, the z-score was inactive: 0.82. For the sequence GACAAUGCAAACUUUUGGGTT against Vmn1r231, the z-score is inactive: -1.51. Consider GGUACACACGGACAAACGCTT against Esyt3, for which the z-score is inactive: 0.294. As for “GGCCUAGAUAGAAUUCGUGTT against 6330403K07Rik”, the z-score was inactive: -1.58.

Turning to GGAUGAAGAGAAAGUUCUATT against Mak, the z-score is active: 2.49.

As for GGUGAUGAAGGAUUUGAUUTT against Cbll1, the z-score is inactive: -0.0253. In the case of GGGUCAUCAACUCUUACAATT against Gga3, the z-score is inactive: 0.943. For the sequence GGAUGACUGUAAGUUACGGTT against Mast2, the z-score was inactive: -0.229. As for GCUCUUCAGUUUAUAGUGUTT against Taar3, the z-score is inactive: -0.995.

GGUAAAAGCUGUUUGAGAGTT against Smim3: the z-score was active: -3.43. Turning to GGCCAAAUAUUGAUCUUAATT against Rgs4, the z-score is inactive: 0.735. Consider GGAAGAAAUACUACAGCCATT against Ptpn12, for which the z-score was inactive: -0.733. For GGCGAGGAUGGUAUUGAGATT against Sema3f, the z-score was inactive: 0.353. Regarding GGGUGAGGGCAUUAGAGAUTT against E2f1, the z-score was inactive: 0.568. As to GGUGAUUUAGUUGUGUAAATT against Calcr, the z-score is inactive: 0.294.

As for GGCCUUAGAAUUUGAUUCUTT against Slc30a8, the z-score was inactive: 0.814. As to CGGCAUCCUAGACACCUUUTT against Rax, the z-score was inactive: 0.646. Regarding GGCUUUCCUAUCAUGGUUUTT against Anp32e, the z-score is inactive: 1.06.

With GGAUAUUCCGGAAGAUAUUTT against Mrpl13, the z-score is inactive: 1.17.

For the sequence GGCUGGUGGAUAAUGAUUGTT against Tmem50b, the z-score is active: 2.18.

Regarding GGGCCAGUUCCCAAUGAAATT against Gfm1, the z-score was inactive: 0.125. The result for CCCUAACAUACUGGAGCUATT against Erfe reads active: 3.56; that for CGGUUUAACAGCAAGGGUATT against Sec61a1, active: -2.75. In the case of CGACCAAGUCAUUGUUAAGTT against Igf2bp1, the z-score was inactive: 0.524. Turning to GCUUGUCUCACACAGCUCUTT against Olfr401, the z-score was active: -3.11. For GGCAAAGCUGGUGAAAUACTT against Ksr1, the z-score is inactive: -0.556. To CCUUCGAUGAAGUAUACAATT against Ipo4 belongs inactive: 1.94; to “CCUAGAAAAGUCAUUGUCATT against 3010003L21Rik”, active: -2.08. As to GGCUAACAUAUGAAUCACUTT against Exoc2, the z-score is inactive: -1.71.

GGAUGACGACGAUUACAACTT against Nkx6-1: the z-score was inactive: 1.1. To GGAAAUGCAGAAGUUCUUUTT against Mmp7 belongs inactive: -0.146; to CCAGCUUUGGGAAAUACCGTT against Sertad1, active: -2.39; to GGAUCAUGAAUACGUUCAGTT against Tubb4a, inactive: -1.43. As to GCGAACAGUUGAAUAGAUUTT against Slc25a46, the z-score was inactive: -0.108. The result for “AGACUGGGUUGUGAAGAUATT against 4930563M21Rik” reads inactive: -1.68. To GAUGUUCUUCUUACACUCCTT against Olfr559 belongs inactive: -1.2; to GGCAAAGUUUGACCAGUGUTT against Ndufa8, inactive: 1.26. Turning to GCUUCAGAUUGGUGUGAUATT against Rec8, the z-score was inactive: 0.762. On to GGAGCUGGAAGAGUGGUAUTT against Clta, for which the z-score was inactive: -0.535.

As to GCAUCUCAAAGUGUCACUATT against Ubxn10, the z-score was inactive: 0.56. In the case of GCCCUACCUUGAAUCCCAUTT against Olfr532, the z-score is inactive: -1.75. Turning to GGAGAGAGGAAUUCAACAGTT against Zfp317, the z-score was inactive: 0.734. As for GGGCCUCCAAUUUGUGGCUTT against Cd1d1, the z-score was inactive: 0.176. On to GGUGUGUGGUGUUAAAAAATT against Mybph, for which the z-score was inactive: -0.81.

In the case of GGUGGAAAGCAAGAAACACTT against St8sia6, the z-score is inactive: -1.89.

As for GGAAUAUGACUACAUGAAATT against Calu, the z-score is inactive: -0.0124. In the case of GGGAUGGACAAGUUGUACUTT against Renbp, the z-score was inactive: -0.101. Consider CGUGGGCUCUCUAGAUGAATT against S100a13, for which the z-score is inactive: 0.806. For GGAUACAAAUGAAAGCUUATT against Zfp354b, the z-score was inactive: -0.307. Take CCAUGAGUAUCAAGUCAAUTT against Septin9: the z-score was inactive: 1.14.

As to GGGCUGUUCCAUUUCUUUATT against Atcay, the z-score was inactive: 0.727. On to CGAGAUCUGACAUAGUGUCTT against Pdia6, for which the z-score was inactive: -1.85. As to GGAUAACCUCGUCUUCAACTT against Wdr66, the z-score was inactive: 0.433. Turning to GGGCCACACAUCAAACAGUTT against Fsip1, the z-score was inactive: 0.165. Turning to GAAGAGUAACGAAGAAUACTT against Olfr199, the z-score was inactive: -0.0929.

For the sequence GGAUGUCAAGCUUUCCCAATT against Armh4, the z-score is inactive: 0.154. To GGGAAGAAGCCCAAAUGCUTT against Pla2g2a belongs inactive: -0.878.
